Test results reported in patent publication US20130017978.

Sequences of proteins named here, by UniProt entry; tags and fusion partners are left off. A change or cut given only in a name is not applied to a line headed by its entry.
UniProt P07636: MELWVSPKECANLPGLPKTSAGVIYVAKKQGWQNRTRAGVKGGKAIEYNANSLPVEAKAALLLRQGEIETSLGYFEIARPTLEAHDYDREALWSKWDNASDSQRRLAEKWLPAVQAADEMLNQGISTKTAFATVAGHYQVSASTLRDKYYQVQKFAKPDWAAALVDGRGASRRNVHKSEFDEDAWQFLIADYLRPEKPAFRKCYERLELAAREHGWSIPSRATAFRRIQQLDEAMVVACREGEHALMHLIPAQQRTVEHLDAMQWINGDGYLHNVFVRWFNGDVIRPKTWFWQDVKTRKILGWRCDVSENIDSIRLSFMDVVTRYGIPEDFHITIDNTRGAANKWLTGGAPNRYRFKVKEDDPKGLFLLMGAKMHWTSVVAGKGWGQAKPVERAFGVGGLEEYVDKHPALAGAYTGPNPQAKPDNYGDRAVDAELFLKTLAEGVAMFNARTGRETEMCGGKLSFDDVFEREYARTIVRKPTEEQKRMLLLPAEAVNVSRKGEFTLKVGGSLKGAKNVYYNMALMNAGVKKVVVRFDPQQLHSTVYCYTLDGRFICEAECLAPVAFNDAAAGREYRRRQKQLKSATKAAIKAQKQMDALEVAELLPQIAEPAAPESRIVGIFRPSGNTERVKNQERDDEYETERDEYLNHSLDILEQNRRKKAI

Assays:
Assay in all cases: enzyme reaction in vitro
[1] = target: MuA transposase (UniProt P07636); settings: purified recombinant protein, protein details: Thermo Fisher Scientific
[2] = system: SgeI methylation-dependent restriction endonuclease (printed Sgel); settings: purified recombinant protein, protein details: Thermo Fisher Scientific, label: 5'-33P
[3] = target: T1, RNase H (UniProt P0A7Y4); settings: four ribonucleotides in each strand (rCrGrCrG in SEQ 10; rUrUrUrC region as printed GrUrUrUrCACG in SEQ 11); purified recombinant protein; protein details: Thermo Fisher Scientific; label: 5'-33P
T1 sequence (looked up, limits assumed): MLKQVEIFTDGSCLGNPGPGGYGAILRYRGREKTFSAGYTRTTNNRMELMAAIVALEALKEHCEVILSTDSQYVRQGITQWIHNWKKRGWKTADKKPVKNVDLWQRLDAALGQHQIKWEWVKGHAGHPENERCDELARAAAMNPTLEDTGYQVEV

[4] = target: T2, Uracil-DNA Glycosylase (UDG) (UniProt P12295); settings: deoxyuracil at one position in each strand (U as printed); purified recombinant protein; protein details: Thermo Fisher Scientific; label: 5'-33P on SEQ 4 strand (Example 1)
T2 sequence (looked up, limits assumed): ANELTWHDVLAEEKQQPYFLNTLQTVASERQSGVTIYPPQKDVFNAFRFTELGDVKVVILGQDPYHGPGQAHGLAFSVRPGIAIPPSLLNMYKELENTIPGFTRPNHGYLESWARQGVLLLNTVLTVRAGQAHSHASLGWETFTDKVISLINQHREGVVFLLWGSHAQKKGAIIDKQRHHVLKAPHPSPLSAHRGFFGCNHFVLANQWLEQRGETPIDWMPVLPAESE

Sequence: GTTTTCGCATTTATCGTGAAACGCTTTCGCGTTTTTCGTGCGTCAGTTCA / TGCTGAACTGACGCACGAAAAACGCGAAAGCGTTTCACGATAAATGCGAAAAC [m5C Mu transposon 1 (Cut-key4 (SgeI-MU)/Non-cut-key4)]
- activity on this sequence ([1]; 5mC at C15 of SEQ 6 (GTTTTCGCATTTATmCGTG), label: 5'-33P): active
- activity on this sequence ([2]; 5mC at C15 of SEQ 6 (GTTTTCGCATTTATmCGTG)): active

Sequence: GTTTTCGCATTTATCGTGAAACGCTTTCGCGTTTTTCGTGCGTCAGTTCA / TGCTGAACTGACGCACGAAAAACGCGAAAGCGTTTCACGATAAATGCGAAAAC [m5C Mu transposon 2 (Cut-key4/Non-cut-key4 (SgeI-MU))]
- activity on this sequence ([1]; 5mC at C14 of SEQ 9 (TGCTGAACTGACGmCACG), label: 5'-33P): active
- activity on this sequence ([2]; 5mC at C14 of SEQ 9 (TGCTGAACTGACGmCACG)): active

Sequence: GTTTTCGCATTTATCGTGAAACGCTTTCGCGTTTTTCGTGCGTCAGTTCA / TGCTGAACTGACGCACGAAAAACGCGAAAGCGUUUCACGATAAATGCGAAAAC [RNA/DNA hybrid Mu transposon (CK_RNR/DNR-2 / NCK_RNR/DNR-2)]
- activity on this sequence ([1]; four ribonucleotides in each strand (rCrGrCrG in SEQ 10; rUrUrUrC region as printed GrUrUrUrCACG in SEQ 11), label: 5'-33P): active
- activity on this sequence [3]: active

Sequence: GTTTTCGCATTTATCGTGAAACGCTTTCGCGUTTTTCGTGCGTCAGTTCA / TGCTGAACTGACGCACGAAAAACGCGAAAGCGTUTCACGATAAATGCGAAAAC [Uracil Mu transposon end (Ck4_UDG12ntMU/NCk4_UDG12ntMU)]
- activity on this sequence [4]: active
- activity on this sequence ([1]; deoxyuracil at one position in each strand (U as printed), label: 5'-33P on SEQ 4 strand (Example 1)): active

For some assays here: Where a protein sequence is shown, tags need not be part of it. For some assays here: The exact form of at least one protein or probe is not confirmed.
